Source: patent publication US7595158B2, “Bcl2L12 polypeptide activators and inhibitors” (Dana-Farber Cancer Institute, Inc., priority 2003, dated 2009)
Some entries share one result that the patent states for a list of compounds.

System: Ink4a-/-/Arf-/- mouse embryo fibroblasts
Experiment: Focus formation in cooperation with activated H-Ras in Ink4a-/-/Arf-/- mouse embryo fibroblasts
Assay type: cell-based
Details: co-transfected with H-RasV12, compared to control pBabe cells
Procedure: The oncogenic potential of these genes was determined directly through their capacity to cooperate with activated H-RAS to effect the malignant transformation of primary Ink4a^−/−/Arf^−/− cells. Briefly, Ink4a^−/−/Arf^−/− mouse embryo fibroblasts (MEFs) were seeded at 8×10^5 cells/10 cm dish and grown in 10% FBS-DMEM for one day and then cotransfected with 1.5 μg of activated H-Ras^G12V and 1.5 μg of either pBabe, Bcl2, Bcl2L12-V5, R-RAS, or IRF3 nucleic acid using Lipopectamine-plus reagent (Invitrogen). One day after cotransfection, each Ink4a^−/−/ARF^−/− MEF was splitted 1:3 ratio and refed with 10% FBS-DMEM every 3-4 day for ten days. After staining cells with crystal violet solution, foci were counted to determine transformation efficiency (mean±S.D.; three independent experiments with each being done in duplicate). The numbers of foci from cells cotransfected with H-Ras^G12V and pBabe vector were set to 100%.
In addition, Ink4a/Arf deficient embryonic fibroblasts were transfected with vector only or a vector encoding a Bcl2L12 polypeptide or Bcl2 polypeptide. Once the cells were transfected, the number of colonies formed in cultures (about 300 cells per 6 well plate) was determined. Expression of Bcl2L12 polypeptide promoted growth of Ink4a/Arf deficient embryonic fibroblasts. […] Once the cells were transfected, the number of foci formed per transfection was determined. […]

B1: Bcl2L12-V5: Bcl2L12 polypeptide having the V5 epitope tag, ectopically expressed from pBabe-Bcl2L12-V5 vector; human amino acid sequence 1-334 (protein)
chain: MGRPAGLFPPLCPFLGFRPEACWERHMQIERAPSVPPFLRWAGYRPGPVRRRGKVELIKFVRVQWRRPQVEWRRRRWGPGPGASMAGSEELGLREDTLRVLAAFLRRGEAAGSPVPTPPRSPAQEEPTDFLSRLRRCLPCSLGRGAAPSESPRPCSLPIRPCYGLEPGPATPDFYALVAQRLEQLVQEQLKSPPSPELQGPPSTEKEAILRRLVALLEEEAEVINQKLASDPALRSKLVRLSSDSFARLVELFCSRDDSSRPSRACPGPPPPSPEPLARLALAMELSRRVAGLGGTLAGLSVEHVHSFTPWIQAHGGWEGILAVSPVDLNLPLD
modifications: left off: small tags and cut ends
- foci per transfection: 1.5 to 2 fold
